The values that follow come from article PMC5472179 (Nature Communications, 2017).

These are yes or no findings as the source states them, for the method shown. For some of these results: Binding seen in cells or lysates may run through a third protein. Some results given as binding are weak or reduced against the parent protein; the word gives no strength.

Test [1] addresses WT HA-eNP full length (Ebola virus (EBOV)) (UniProt P18272). Put plainly: co-IP.
The target in test [2] is eNP 564-739 (Ebola virus (EBOV)) (UniProt L7QI51). Put plainly: SEC; both purified. (SEC sorts molecules by how far they enter the pores of the column.)
Test [3] addresses eNP 590-739 (Ebola virus (EBOV)) (UniProt L7QI51). Put plainly: SEC; both purified.
Test [4] has as its target MBP-eNP 437-739 (Ebola virus (EBOV)) (UniProt L7QI51). The experiment in a line: pull-down; only the target purified.
Test [5] addresses MBP-eNP 564-739 (Ebola virus (EBOV)) (UniProt L7QI51). The experiment in a line: pull-down; only the target purified.
Test [6] concerns the target MBP-eNP 590-739 (Ebola virus (EBOV)) (UniProt L7QI51). The experiment in a line: pull-down; only the target purified.
Test [7] concerns the target MBP-eNP 600-739 (Ebola virus (EBOV)) (UniProt L7QI51). The experiment in a line: pull-down; only the target purified.
Test [8] has as its target eNP 600-739 (Ebola virus (EBOV)) (UniProt L7QI51). Put plainly: SEC; both purified.

As to “WT FLAG-eVP30 full length (from UniProt Q05323 1-288)”, the binding entry in test [1] is reported as “binds”.

On to “eVP30 69-288 (from UniProt Q05323 69-288) (domain or fragment)”, for which the binding entry in test [2], in test [3], in test [4], in test [5], in test [6] and in test [7] was “binds” in each case.

On to “eVP30 89-288 (from UniProt Q05323 89-288) (domain or fragment)”, for which the binding result in test [2] and in test [8] was “binds” each time.

As for “eVP30 110-272 (from UniProt Q05323 110-272) (domain or fragment)”, the binding result in test [8] was “binds”.
